Experimental data taken from the supplement of paper PMC10849652.
This is one part of the list.

Amino acid sequences for entries named in this document (tags omitted). A change or cut given only in a name is not applied to a line headed by its entry.
UniProt Q7Z3B3: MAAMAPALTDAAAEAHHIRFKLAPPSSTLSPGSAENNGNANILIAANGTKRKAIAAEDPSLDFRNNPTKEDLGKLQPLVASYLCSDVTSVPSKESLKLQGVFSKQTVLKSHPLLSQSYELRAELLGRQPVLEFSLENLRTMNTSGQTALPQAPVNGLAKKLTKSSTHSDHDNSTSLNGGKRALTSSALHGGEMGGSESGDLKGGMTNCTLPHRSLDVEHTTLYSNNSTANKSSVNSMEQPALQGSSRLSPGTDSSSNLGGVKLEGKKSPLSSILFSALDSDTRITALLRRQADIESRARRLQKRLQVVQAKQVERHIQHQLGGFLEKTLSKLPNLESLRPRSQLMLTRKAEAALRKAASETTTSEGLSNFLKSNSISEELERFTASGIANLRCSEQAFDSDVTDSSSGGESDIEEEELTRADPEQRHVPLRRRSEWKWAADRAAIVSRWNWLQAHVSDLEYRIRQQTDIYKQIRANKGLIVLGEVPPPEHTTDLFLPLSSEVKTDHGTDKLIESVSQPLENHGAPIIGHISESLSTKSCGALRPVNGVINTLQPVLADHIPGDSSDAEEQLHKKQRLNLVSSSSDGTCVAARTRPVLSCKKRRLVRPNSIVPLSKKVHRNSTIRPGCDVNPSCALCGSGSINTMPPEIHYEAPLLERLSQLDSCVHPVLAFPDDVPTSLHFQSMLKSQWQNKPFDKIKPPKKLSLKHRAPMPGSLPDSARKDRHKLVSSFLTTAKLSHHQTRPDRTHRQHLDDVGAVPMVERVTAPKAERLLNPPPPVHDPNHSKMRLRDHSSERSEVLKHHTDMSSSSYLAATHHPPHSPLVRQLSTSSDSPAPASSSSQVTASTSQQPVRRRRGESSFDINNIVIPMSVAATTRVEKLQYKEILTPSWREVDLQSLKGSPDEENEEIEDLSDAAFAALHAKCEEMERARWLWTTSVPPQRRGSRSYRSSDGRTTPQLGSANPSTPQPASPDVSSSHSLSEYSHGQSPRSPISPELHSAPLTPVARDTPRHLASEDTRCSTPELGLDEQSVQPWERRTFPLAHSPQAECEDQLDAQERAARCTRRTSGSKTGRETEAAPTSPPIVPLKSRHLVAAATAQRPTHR
UniProt Q13352: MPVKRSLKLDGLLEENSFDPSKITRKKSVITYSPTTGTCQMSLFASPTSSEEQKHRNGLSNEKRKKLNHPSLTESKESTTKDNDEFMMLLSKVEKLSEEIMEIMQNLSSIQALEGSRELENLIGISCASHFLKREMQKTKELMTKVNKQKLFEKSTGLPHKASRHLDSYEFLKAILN
UniProt P01591, whole entry, looked up: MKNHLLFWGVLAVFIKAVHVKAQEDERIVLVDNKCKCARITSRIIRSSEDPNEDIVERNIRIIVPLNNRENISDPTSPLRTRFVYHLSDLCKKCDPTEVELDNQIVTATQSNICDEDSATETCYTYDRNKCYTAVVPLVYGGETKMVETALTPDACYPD
UniProt Q12809: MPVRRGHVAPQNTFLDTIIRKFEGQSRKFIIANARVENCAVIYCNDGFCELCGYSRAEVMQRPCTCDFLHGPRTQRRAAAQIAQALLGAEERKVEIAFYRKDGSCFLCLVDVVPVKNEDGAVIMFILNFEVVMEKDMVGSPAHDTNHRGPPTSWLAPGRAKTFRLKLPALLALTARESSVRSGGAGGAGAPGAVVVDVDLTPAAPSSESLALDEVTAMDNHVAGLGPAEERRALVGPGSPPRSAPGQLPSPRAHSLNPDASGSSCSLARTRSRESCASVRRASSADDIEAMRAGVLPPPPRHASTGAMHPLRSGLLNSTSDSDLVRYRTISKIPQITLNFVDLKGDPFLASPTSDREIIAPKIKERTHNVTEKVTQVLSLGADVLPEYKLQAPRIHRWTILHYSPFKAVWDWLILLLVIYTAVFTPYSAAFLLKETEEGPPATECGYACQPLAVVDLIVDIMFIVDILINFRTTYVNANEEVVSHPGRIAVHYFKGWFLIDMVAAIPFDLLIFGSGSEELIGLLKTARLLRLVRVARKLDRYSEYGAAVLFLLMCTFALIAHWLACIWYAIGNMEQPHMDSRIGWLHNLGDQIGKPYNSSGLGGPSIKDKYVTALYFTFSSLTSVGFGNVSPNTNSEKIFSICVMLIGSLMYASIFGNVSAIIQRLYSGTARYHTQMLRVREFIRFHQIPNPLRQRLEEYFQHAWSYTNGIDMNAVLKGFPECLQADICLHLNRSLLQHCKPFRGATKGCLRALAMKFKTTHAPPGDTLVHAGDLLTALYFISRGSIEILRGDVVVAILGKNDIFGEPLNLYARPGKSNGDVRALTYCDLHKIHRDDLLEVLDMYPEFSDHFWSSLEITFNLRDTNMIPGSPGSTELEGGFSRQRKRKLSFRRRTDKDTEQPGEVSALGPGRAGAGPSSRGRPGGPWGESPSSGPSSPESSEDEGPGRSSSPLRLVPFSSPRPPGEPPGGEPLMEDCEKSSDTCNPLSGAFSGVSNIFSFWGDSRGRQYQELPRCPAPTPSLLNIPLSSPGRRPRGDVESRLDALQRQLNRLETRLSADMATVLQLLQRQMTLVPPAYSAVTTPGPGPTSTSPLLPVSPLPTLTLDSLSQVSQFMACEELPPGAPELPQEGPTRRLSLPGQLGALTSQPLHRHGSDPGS
UniProt P17275: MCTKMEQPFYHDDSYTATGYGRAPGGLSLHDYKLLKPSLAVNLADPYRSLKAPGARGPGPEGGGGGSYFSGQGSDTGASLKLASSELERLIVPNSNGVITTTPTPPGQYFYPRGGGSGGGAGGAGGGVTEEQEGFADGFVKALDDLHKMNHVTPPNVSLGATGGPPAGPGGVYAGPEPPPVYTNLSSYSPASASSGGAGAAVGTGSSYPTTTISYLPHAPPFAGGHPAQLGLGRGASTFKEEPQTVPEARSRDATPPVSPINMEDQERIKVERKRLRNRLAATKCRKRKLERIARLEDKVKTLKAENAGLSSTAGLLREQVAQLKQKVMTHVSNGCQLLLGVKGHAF
UniProt Q8NHM5: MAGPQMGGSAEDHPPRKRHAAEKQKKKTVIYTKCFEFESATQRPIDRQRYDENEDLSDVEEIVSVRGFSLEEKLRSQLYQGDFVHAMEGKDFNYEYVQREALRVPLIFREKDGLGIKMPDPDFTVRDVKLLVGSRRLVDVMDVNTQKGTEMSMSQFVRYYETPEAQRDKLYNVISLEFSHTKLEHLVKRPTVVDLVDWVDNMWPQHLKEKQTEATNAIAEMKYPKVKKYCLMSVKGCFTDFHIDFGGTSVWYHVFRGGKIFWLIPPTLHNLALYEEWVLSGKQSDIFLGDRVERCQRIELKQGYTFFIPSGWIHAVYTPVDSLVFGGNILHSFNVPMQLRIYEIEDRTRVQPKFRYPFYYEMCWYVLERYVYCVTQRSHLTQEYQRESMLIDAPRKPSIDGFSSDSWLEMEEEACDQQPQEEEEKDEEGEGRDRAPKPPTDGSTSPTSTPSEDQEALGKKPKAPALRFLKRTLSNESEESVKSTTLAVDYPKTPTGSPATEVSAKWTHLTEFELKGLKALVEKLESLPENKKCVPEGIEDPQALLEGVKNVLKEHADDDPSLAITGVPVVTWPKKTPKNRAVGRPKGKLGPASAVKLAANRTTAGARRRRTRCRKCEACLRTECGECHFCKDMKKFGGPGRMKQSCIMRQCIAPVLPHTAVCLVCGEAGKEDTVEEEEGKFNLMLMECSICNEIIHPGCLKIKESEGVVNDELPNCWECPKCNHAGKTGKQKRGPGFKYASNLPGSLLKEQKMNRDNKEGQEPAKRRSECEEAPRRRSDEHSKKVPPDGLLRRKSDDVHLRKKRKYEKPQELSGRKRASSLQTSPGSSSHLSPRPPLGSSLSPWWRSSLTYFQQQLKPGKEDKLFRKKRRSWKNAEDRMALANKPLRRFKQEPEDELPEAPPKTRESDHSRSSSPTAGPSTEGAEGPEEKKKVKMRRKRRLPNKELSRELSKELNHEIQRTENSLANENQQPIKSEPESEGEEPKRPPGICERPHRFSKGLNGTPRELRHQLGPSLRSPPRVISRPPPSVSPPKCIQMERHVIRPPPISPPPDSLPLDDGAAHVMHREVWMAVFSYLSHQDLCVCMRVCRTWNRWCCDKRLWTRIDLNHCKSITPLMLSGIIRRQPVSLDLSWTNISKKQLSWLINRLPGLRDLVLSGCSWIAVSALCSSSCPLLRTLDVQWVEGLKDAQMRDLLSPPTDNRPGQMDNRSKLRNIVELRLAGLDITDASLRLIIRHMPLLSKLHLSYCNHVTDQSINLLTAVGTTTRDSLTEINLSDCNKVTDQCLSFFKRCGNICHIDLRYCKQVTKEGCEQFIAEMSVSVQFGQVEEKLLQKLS
UniProt Q9Y219: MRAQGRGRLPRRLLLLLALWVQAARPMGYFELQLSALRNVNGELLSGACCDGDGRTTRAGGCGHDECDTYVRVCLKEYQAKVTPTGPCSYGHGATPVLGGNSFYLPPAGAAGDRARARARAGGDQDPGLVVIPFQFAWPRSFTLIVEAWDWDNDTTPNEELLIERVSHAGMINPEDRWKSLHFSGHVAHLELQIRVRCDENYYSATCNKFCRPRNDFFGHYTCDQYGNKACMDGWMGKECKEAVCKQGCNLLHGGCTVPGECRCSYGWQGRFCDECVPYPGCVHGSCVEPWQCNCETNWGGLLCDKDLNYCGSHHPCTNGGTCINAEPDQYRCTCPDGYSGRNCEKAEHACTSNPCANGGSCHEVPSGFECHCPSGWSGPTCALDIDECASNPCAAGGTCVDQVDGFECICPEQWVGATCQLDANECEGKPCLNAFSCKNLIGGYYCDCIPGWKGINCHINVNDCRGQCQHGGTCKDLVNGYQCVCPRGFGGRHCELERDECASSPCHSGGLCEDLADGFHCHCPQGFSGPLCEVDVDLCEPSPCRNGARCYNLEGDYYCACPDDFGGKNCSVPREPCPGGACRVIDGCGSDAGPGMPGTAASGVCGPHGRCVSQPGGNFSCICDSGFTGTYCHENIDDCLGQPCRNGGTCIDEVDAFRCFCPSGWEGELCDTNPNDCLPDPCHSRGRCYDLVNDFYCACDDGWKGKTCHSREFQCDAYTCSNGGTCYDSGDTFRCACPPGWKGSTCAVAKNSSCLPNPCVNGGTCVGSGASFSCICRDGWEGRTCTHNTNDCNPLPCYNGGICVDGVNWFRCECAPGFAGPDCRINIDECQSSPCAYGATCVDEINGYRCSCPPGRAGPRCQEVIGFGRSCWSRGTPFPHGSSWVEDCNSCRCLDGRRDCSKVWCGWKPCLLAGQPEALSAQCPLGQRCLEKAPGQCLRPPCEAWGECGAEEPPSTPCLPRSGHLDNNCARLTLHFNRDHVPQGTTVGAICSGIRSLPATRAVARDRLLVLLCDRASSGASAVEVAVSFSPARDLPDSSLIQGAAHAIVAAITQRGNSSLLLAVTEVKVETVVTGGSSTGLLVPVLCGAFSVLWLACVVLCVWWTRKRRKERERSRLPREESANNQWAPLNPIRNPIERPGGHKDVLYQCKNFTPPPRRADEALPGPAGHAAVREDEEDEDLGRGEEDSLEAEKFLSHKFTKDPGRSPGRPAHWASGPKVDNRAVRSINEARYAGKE
UniProt P0C870: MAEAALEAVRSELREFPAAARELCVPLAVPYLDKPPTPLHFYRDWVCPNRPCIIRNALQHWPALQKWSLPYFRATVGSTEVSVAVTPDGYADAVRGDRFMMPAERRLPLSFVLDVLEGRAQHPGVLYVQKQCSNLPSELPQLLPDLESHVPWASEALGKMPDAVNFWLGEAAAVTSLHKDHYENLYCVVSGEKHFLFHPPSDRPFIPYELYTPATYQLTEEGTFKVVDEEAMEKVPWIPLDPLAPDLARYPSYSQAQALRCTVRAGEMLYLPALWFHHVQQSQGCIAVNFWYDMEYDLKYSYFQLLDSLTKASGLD
UniProt P05412, whole entry, looked up: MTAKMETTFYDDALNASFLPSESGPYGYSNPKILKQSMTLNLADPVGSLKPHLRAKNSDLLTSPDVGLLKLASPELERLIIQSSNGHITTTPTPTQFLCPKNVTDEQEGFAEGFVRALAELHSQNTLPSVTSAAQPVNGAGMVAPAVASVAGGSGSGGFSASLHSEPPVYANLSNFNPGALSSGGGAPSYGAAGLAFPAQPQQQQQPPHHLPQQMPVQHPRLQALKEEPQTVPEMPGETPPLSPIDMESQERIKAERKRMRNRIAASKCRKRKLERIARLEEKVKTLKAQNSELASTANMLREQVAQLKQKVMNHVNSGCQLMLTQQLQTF
UniProt O15554, whole entry, looked up: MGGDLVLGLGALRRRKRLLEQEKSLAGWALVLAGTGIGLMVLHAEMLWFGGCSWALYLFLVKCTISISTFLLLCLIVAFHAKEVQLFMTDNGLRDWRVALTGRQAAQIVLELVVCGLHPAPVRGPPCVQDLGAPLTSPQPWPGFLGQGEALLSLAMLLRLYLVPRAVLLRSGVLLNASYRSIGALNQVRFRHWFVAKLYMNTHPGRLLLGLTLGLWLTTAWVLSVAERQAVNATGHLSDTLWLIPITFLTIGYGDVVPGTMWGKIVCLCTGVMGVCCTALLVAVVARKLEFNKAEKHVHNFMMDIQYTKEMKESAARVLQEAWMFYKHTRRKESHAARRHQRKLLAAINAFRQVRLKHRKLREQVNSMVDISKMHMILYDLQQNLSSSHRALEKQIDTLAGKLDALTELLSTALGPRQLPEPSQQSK

Tests used:
Assay in all cases: log2 fold change, soluble protein after heating vs DMSO (PISA); higher = thermal stabilisation; K562 lysate, 10 uM; active = over 0.2 and 3.5 SD of the protein, either way, in both replicates (recomputed)
[1] = compound: CCCS(=O)(=O)Nc1ccc(F)c(C(=O)c2c[nH]c3ncc(Cl)cc23)c1F
Method in brief: (§1)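 Thermal stability, expressed as log-two fold change relative to solvent controls, is given from duplicates. Crude K562 extract in PBS pH 7.4 with 1 mM MgCl2, at 1 mg/mL protein, was treated with 10 μM compound for 30 min and heated in aliquots for 3 min across 48°C-58°C. After pooling, adjustment to 0.5% NP-40 at 4°C and centrifugation at 21,000xg for 90 min, supernatant protein was measured by TMTpro 16plex LC-MS/MS with channel sums equalised.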

[2] = compound: CC[C@@H]1C(=O)N(C)c2cnc(Nc3ccc(C(=O)NC4CCN(C)CC4)cc3OC)nc2N1C1CCCC1
Method in brief: as §1

[3] = compound: CC[C@@H]1C(=O)N(C)c2cnc(Nc3ccc(C(=O)N[C@H]4CC[C@H](N5CCN(CC6CC6)CC5)CC4)cc3OC)nc2N1C(C)C [volasertib]
Method in brief: as §1

[4] = compound: CCn1c(C(=O)N(C2CC2)C2CC2)cc2c3c(ncn3C)c(Nc3cc(C)n(C)n3)nc21
Method in brief: as §1

[5] = compound: CCn1cc(-c2ccnc3[nH]c(-c4cccc(CN(C)C)c4)cc23)c(-c2ccc(NC(=O)N(C)C)cc2)n1
Method in brief: as §1

[6] = compound: CN1CCC(CNc2ccc3ncc(-c4cccc(OC(F)(F)F)c4)n3n2)CC1
Method in brief: as §1

[7] = compound: CN1CCN(CCOc2cc(OC3CCOCC3)c3c(Nc4c(Cl)ccc5c4OCO5)ncnc3c2)CC1 [saracatinib]
Method in brief: as §1

[8] = compound: CCN(CCCOc1ccc2c(Nc3cc(CC(=O)Nc4cccc(F)c4)[nH]n3)ncnc2c1)CCOP(=O)(O)O [barasertib]
Method in brief: as §1

[9] = compound: CCCS(=O)(=O)Nc1ccc(F)c(C(=O)c2c[nH]c3ncc(-c4ccc(Cl)cc4)cc23)c1F [vemurafenib]
Method in brief: as §1

[10] = compound: CN1CCN(c2nc(C3=C(c4c[nH]c5ccccc45)C(=O)NC3=O)c3ccccc3n2)CC1 [sotrastaurin]
Method in brief: as §1

Measured: log2 fold change

KANSL1 (UniProt Q7Z3B3)
inactive: [1] -0.084 | [2] -0.208 | [3] -0.048 | [4] 0.047 | [5] -0.169 | [6] -0.03 | [7] -0.116

ITIH3 (UniProt Q06033)
inactive: [8] 0.053 | [2] 0.194 | [4] -0.055

ITGB1BP2 (UniProt Q9UKP3)
inactive: [9] 0.045 | [2] -0.07 | [5] -0.032 | [6] 0.443 | [7] 0.005

ITPRIP (UniProt Q8IWB1)
inactive: [7] -0.143

INTS6L (UniProt Q5JSJ4)
inactive: [1] 0.047 | [3] 0.044 | [4] 0.083 | [5] -0.034 | [6] 0.105 | [7] -0.119

KCTD13 (UniProt Q8WZ19)
inactive: [8] -0.186 | [4] -0.143 | [7] 0.076 | [10] 0.033

ITPRID2 (UniProt P28290)
inactive: [1] 0.012 | [8] -0.051 | [2] 0.038 | [3] 0.026 | [4] 0.059 | [5] 0.13 | [6] -0.068

ITGB3BP isoform 5 (UniProt Q13352)
inactive: [4] 0.105 | [5] 0.005 | [6] -0.025 | [10] -0.1

ITM2C (UniProt Q9NQX7)
inactive: [1] -0.207 | [8] 0.149 | [2] -0.046 | [3] 0.165 | [4] 0.077 | [7] 0.005 | [10] -0.063

KAZN isoform 3 (UniProt Q674X7)
inactive: [8] -0.045 | [4] -0.051 | [5] -0.02 | [6] -0.049 | [10] 0.086

ITM2B (UniProt Q9Y287)
inactive: [9] 0.021 | [8] 0.258 | [4] -0.012 | [5] -0.141 | [6] 0.069 | [7] -0.053 | [10] -0.012

JCHAIN (UniProt P01591)
inactive: [10] -0.183

ITPR2 (UniProt Q14571)
inactive: [1] -0.044 | [3] 0.336 | [4] -0.222 | [7] 0.088

JPT2 isoform 2 (UniProt Q9H910)
inactive: [8] 0.119 | [5] 0.032 | [6] 0.001 | [7] -0.183

IRF9 (UniProt Q00978)
inactive: [4] 0.256 | [7] 0.149

ITPR3 (UniProt Q14573)
inactive: [1] 0.046 | [3] -0.004 | [10] 0.207

IQCD (UniProt Q96DY2)
inactive: [1] 0.007 | [8] 0.191 | [3] 0.065

IRS2 (UniProt Q9Y4H2)
inactive: [1] 0.026 | [8] -0.019 | [3] -0.073 | [4] 0.047 | [5] -0.698 | [6] 0.341 | [7] 0.013 | [10] -0.025

KCNH2 (UniProt Q12809)
inactive: [5] 0.231 | [6] -0.121 | [10] -0.067

JUNB (UniProt P17275)
inactive: [5] 0.035 | [6] 0.038 | [7] 0.214 | [10] 0.085

KAT2A (UniProt Q92830)
inactive: [1] -0.081 | [2] -0.18 | [3] -0.076 | [4] 0.168 | [5] 0.027 | [6] 0.061 | [7] -0.099 | [10] 0.034

KBTBD6 (UniProt Q86V97)
inactive: [5] 0.09 | [6] -0.021 | [10] 0.139

KALRN (UniProt O60229)
inactive: [5] -0.193 | [6] 0.127 | [10] 0.051

JAK2 (UniProt O60674)
inactive: [9] -0.054 | [4] -0.045 | [5] 0.027 | [6] 0.133 | [7] -0.113

ISG20 (UniProt Q96AZ6)
inactive: [8] 0.087 | [7] 0.073

KANSL2 (UniProt Q9H9L4)
inactive: [4] -0.093 | [10] -0.02

KCTD16 (UniProt Q68DU8)
inactive: [10] -0.1

JADE2 (UniProt Q9NQC1)
inactive: [2] -0.357 | [5] 0.242 | [6] -0.124 | [7] 0.115

KDM2B (UniProt Q8NHM5)
inactive: [2] 0.106 | [4] -0.074 | [10] 0.027

JAK1 (UniProt P23458)
inactive: [9] 0.044 | [8] 0.085 | [2] 0.079 | [10] 0.039

JAG2 (UniProt Q9Y219)
inactive: [1] -0.051 | [8] -0.035 | [2] 0.106 | [3] 0.142 | [4] -0.061 | [5] 0.253 | [6] 0.099 | [7] 0.007 | [10] -0.032

JMY (UniProt Q8N9B5)
inactive: [8] 0.098 | [4] -0.202 | [5] -0.089 | [6] 0.009 | [7] 0.1 | [10] 0.057

Quoted from the results shown (two entries):
KDM2B (UniProt Q8NHM5)
inactive: [2] 0.106 | [4] -0.074 | [10] 0.027

JAK1 (UniProt P23458)
inactive: [9] 0.044 | [8] 0.085 | [2] 0.079 | [10] 0.039

(listing goes on)

NA (UniProt J3KR12)
inactive: [9] 0.131 | [2] -0.021 | [5] -0.144 | [6] -0.096

JMJD7 (UniProt P0C870)
inactive: [1] -0.042 | [8] 0.137 | [2] 0.231 | [3] 0.006 | [4] -0.007 | [5] -0.162 | [6] 0.043 | [7] 0.109

JUN (UniProt P05412)
inactive: [1] -0.054 | [2] -0.033 | [3] 0.004 | [4] -0.065 | [7] -0.035 | [10] 0.073

KCNN4 (UniProt O15554)
inactive: [1] -0.212 | [3] -0.188 | [4] 0.139 | [5] -0.061 | [6] -0.217 | [10] 0.082
